Values quoted from earlier work in patent US20250312300A1, “BRIDGED BICYCLIC CARBOXYLIC ACIDS FOR TREATING OSTEOSARCOMA AND EWING SARCOMA” (UEA ENTERPRISES LIMITED, priority 2022, published 2025).
For at least one compound, name, drawing or mass did not settle the structure.

Tested on: Ewing sarcoma
Settings: 2022 ASCO Annual Meeting; cited from earlier work

Structure (SMILES): CC(=O)c1c(C)c2cnc(Nc3ccc(N4CCNCC4)cn3)nc2n(C2CCCC2)c1=O [palbociclib]
- clinical response: there were no complete or partial responders
